From PubChem BioAssay AID504834 (National Center for Advancing Translational Sciences (NCATS), 2011)
Hit rate of the full screen: of about 320,000 compounds, about 22,000 (6.9%) were called active. This list was built around the results that the source calls inconclusive (neither active nor inactive); the mix of calls is not that of the screen. Calls follow the shape of the dose curve; as a rule, active = well fitted inhibition curve with a large enough effect; inconclusive = small, poorly fitted or top-dose-only effect, or another doubt; inactive = no such curve, though single readings can be large or run the other way. A potency beside an inconclusive call is a rough fit, not a confirmed value.

Test: Primary qHTS for delayed death inhibitors of the malarial parasite plastid, 96 hour incubation
Details: P. falciparum luciferase reporter growth; series mostly up to 28.7 µM; activity change, negative = inhibition: at the top concentration
Method in brief: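 Two parasite generations (96 h, 37 C, 5% CO2) of compound exposure in infected erythrocytes (0.05% parasitemia, 2% hematocrit). Luciferase-reporter P. falciparum; decreased luminescence indicates inhibited growth, aimed at apicoplast-acting delayed death.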
% is scaled to controls: 0 for no effect and ±100 for the full control effect; potency is read from the fitted curve at half-maximal effect.

SMILES | Potency | activity change, negative = inhibition
CCC(=O)N(Cc1ccco1)c1nc(-c2ccc(OC)cc2)cs1 | inconclusive: 18.5 µM [inhibitor, single point] | –
Cc1nc(C)c(-c2csc(Nc3ccc(C(=O)O)c(O)c3)n2)s1 | inconclusive: 20.8 µM [inhibitor, single point] | –
COCCN1C(=O)C(=O)/C(=C(/O)c2ccc(OC(C)C)cc2)C1c1cccnc1 (stereo not given) | active: 14.7 µM | –
CN(CCCNC(=O)CN1C(=O)CC(C)(C)S(=O)(=O)c2ccccc21)C1CCCCC1 | inconclusive: 0.0026 µM [inhibitor, full curve, poor fit] | –
O=c1[nH]c(-c2cccs2)nc2ccccc12 | – | inactive: -7.89%
CCC(C)(C)C(=O)Nc1cccc(Cl)c1C | inconclusive: 0.0047 µM [inhibitor, partial curve, poor fit] | –
O=C(CC1(O)C(=O)N(Cc2ccccc2)c2ccccc21)c1ccc2c(c1)OCO2 (stereo not given) | inconclusive: 11.7 µM [inhibitor, partial curve] | –
O=C(c1nc2ccccc2s1)N1CCN(c2ccccn2)CC1 | – | inactive: -6.49%
COc1ccccc1C1CCCN1Cc1nc(-c2ccc(C)s2)oc1C (stereo not given) | – | inactive: 4.64%
COc1cccc(NC(=O)CCN2CCN(c3ccccc3F)CC2)c1 | active: 11.7 µM | –
Cc1nc(-c2ccccn2)sc1C(=O)Nc1ccc(F)cc1F | inconclusive: 0.0033 µM [inhibitor, full curve, poor fit] | –
Cc1cccc(N2CCN(Cc3c(C)n(C)n(-c4ccccc4)c3=O)CC2)c1C | inconclusive: 18.5 µM [inhibitor, partial curve, poor fit] | –
COc1cc2c(cc1NC(=O)c1cncc(Br)c1)oc1ccccc12 | inconclusive: 10.4 µM [inhibitor, single point] | –
C/C(=C\C(=O)c1ccc(Cl)s1)N(C)C | – | inactive: 41.2%
Clc1ccc(C2=Nn3c(nnc3-c3cc(-c4ccccc4)n[nH]3)SC2)cc1 | inconclusive: 18.5 µM [inhibitor, single point] | –
O=C(CSc1nc2[nH]ncc2c(=O)[nH]1)Nc1ccc(OC(F)(F)F)cc1 | inconclusive: 7.38 µM [inhibitor, partial curve, poor fit] | –
Cc1cc(OCC(=O)Nc2cccnc2)c2c(C)cc(=O)oc2c1 | inconclusive: 13.1 µM [inhibitor, single point] | –
CCC1=C(OC(=O)N(CC)CC)N2C(=O)OC(=NCC3CC3)[C@]2(Cc2ccccc2)[C@H]2C1=CC[C@H]1C(=O)N(c3ccccc3)C(=O)[C@H]12 | active: 2.94 µM | –
CC(=O)N1N=C2/C(=C/c3ccccc3)CCCC2C1c1ccccc1 (stereo not given) | inconclusive: 10.4 µM [inhibitor, partial curve, poor fit] | –
CCOC(=O)CN1C(=O)S/C(=C\c2ccc3c(c2)OCO3)C1=O | inconclusive: 3.7 µM [inhibitor, single point] | –
CC1Sc2ccc(S(=O)(=O)N3CCC(C(=O)Nc4ccc(Cl)cc4)CC3)cc2NC1=O (stereo not given) | active: 13.1 µM | –
CC1Cc2nc(SCC(=O)NCc3ccco3)n(Cc3ccccc3)c(=O)c2S1 (stereo not given) | inconclusive: 11.7 µM [inhibitor, single point] | –
COC(CNc1nc(SC)nc2sc3c(c12)CCN(C)C3)OC | active: 5.22 µM | –

SMILES | Potency | activity change, negative = inhibition
O=C(NC1CC1)c1cccc(S(=O)(=O)Nc2ccccc2F)c1 | – | inactive: 8.65%
O=C(NCCSc1ccccc1)c1ccco1 | inconclusive: 5.86 µM [inhibitor, partial curve] | –
COC(=O)c1nc(N)sc1-c1ccccc1 | active: 9.28 µM | –
O=C(Nc1ccc(-c2cn3ccccc3n2)cc1)c1ccc(Cl)cc1 | inconclusive: 20.8 µM [inhibitor, partial curve, poor fit] | –
Nc1c(Cl)cc(C2=NCCn3nc4cc([N+](=O)[O-])ccc4c32)cc1Cl | inconclusive: 18.5 µM [inhibitor, single point] | –
O=C(COc1ccccc1)Nc1cccc(-c2cn3cccnc3n2)c1 | active: 6.57 µM | –
CC(=O)c1cc(-c2ccccc2)n(CC(=O)Nc2cc(C)cc(C)c2)c1C | inconclusive: 13.1 µM [inhibitor, partial curve, poor fit] | –
O=C(NC1=NCCS1)C1Cc2ccccc2CN1C(=O)c1ccccc1 (stereo not given) | inconclusive: 0.0657 µM [inhibitor, full curve, poor fit] | –
Oc1c(C(c2ccccc2)N2CCCCC2)sc2ncnn12 (stereo not given) | inconclusive: 10.4 µM [inhibitor, single point] | –
COC(=O)c1ccccc1NC(=O)CC#N | inconclusive: 0.738 µM [inhibitor, full curve] | –
CCOC(=O)CNC(=O)N1CCCC(C(=O)c2ccc3c(c2)OCO3)C1 (stereo not given) | active: 11.7 µM | –
C=CCc1ccc(OCCCCNC2CCCC2)c(OC)c1 | – | inactive: 21.6%
Cc1ccc(NC(=O)CN(CCc2ccccc2)S(C)(=O)=O)cc1 | – | inactive: 3.81%
O=C(CSc1cccc[n+]1[O-])Nc1ccc(C(F)(F)F)cc1[N+](=O)[O-] | inconclusive: 11.7 µM [inhibitor, single point] | –
Cc1ccnc(NC(=O)C23CC4CC(CC(C4)C2)C3)c1 | – | inactive: 5.01%
Cc1cccc(OCC(=O)Nc2ccc3c(c2)nc(CCN2CCN(c4ccccn4)CC2)n3C)c1 | inconclusive: 13.1 µM [inhibitor, single point] | –
O=C(CN(Cc1cccs1)C(=O)c1csnn1)NC1CCCC1 | inconclusive: 18.5 µM [inhibitor, single point] | –
COc1ccc(Cn2c(=O)n(Cc3ccco3)c(=N)c3c4c(sc32)COC(C)(C)C4)cc1 | active: 13.1 µM | –
COc1cc2c(cc1OC)C(C(=O)Nc1ccc3c(c1)OCCO3)C(c1cccnc1)N(C)C2=O (stereo not given) | inconclusive: 18.5 µM [inhibitor, single point] | –
COc1ccc(-n2cnc3c(cnn3CCC#N)c2=N)cc1 | – | inactive: 15.8%
CCOc1ccc2nc(COC(=O)c3cccs3)c(C(C)=O)[n+]([O-])c2c1 | inconclusive: 4.15 µM [inhibitor, partial curve, poor fit] | –
Cc1ccccc1Cn1ccc(-c2ccc3c(c2)OCO3)n1 | – | inactive: 108%

Full records, quoted from the list. Values in the order: Potency	activity change, negative = inhibition
`O=C(NC1=NCCS1)C1Cc2ccccc2CN1C(=O)c1ccccc1` (stereo not given) is entered as inconclusive: 0.0657 µM [inhibitor, full curve, poor fit]	–
`O=C(NCCSc1ccccc1)c1ccco1` is entered as inconclusive: 5.86 µM [inhibitor, partial curve]	–
`Cc1ccc(NC(=O)CN(CCc2ccccc2)S(C)(=O)=O)cc1` is entered as –	inactive: 3.81%
